Test results taken from patent publication US20060135569A1, “Use of benzisoselenazolone compounds against ischemic myocardial damage” (priority 2002, published 2006).

Tested on: acute myocardial ischemia in anesthetized dogs
Experiment: Acute myocardial ischemia and infarction in anesthetized dogs
Format: in vivo, dog
Settings: Dilthiazem 5 mg/kg, IMM-004 30 mg/kg; n = 5, X ± SD
Experimental: Dogs were divided into three groups: 1, vehicle control group, PEG 1 ml/kg, n=5; 2, dilthiazem group, 5 mg/kg, n=5; 3, IMM-004 group, 30 mg/kg, n=5. The tested drugs were prepared in distilled water at volume of 1 ml/kg. The tested items were administrated via duodenum by animals.

SMILES | Heart area mm^2 [mm^2] | Ventricular area mm^2 [mm^2]
COc1ccc([C@@H]2Sc3ccccc3N(CCN(C)C)C(=O)[C@@H]2OC(C)=O)cc1 [Dilthiazem, reference compound] | 15185.8 ± 876.8 | 5309.6 ± 427.4
O=c1c2cc(Cl)ccc2[se]n1-c1ccccn1 [IMM-004, 5-chloro-2-(2-pyridyl)-1,2-benz-isoselenazol-3(2H)-one] | 17098.9 ± 3224.4 | 5274.3 ± 832.6
